Data from patent publication US9051342B2 (priority 2004, dated 2015).
For at least one compound, name, drawing or mass did not settle the structure.

Tested on: luciferase with nonsense mutation in a specific codon context (UGAA, UGAC, UAAA or UAAC)
Assay: Western blot of luciferase protein produced by suppression of the nonsense mutation
Type: cell-based, Human embryonic kidney cells (293 cells)
Conditions: 293 cells treated with compound; continuation lines list further codon contexts
Text: Nonsense suppression activity in an assay as described above is shown in the Table 3 below, for a construct with a UGA nonsense mutation at position 190, followed by a cytosine nucleotide in-frame, (UGAC); for a construct with UAG nonsense mutation at position 190, followed by an adenine nucleotide in-frame, (UAGA); for a construct with […] nonsense mutation at position 190, followed by an adenine nucleotide in-frame, (UAAA); and a construct with a UAA nonsense mutation at position 190, followed by an cytosine nucleotide in-frame, (UAAC). Also included in Table 3 is a column (“western blot”) indicating whether treatment of cells with the indicated compound suppresses the nonsense mutation in a specific codon context (UGAA, UGAC, UAAA or UAAC) in luciferase and results in production of luciferase protein as determined by a positive signal on a western blot. […]
Another assay of the present invention can evaluate compounds that promote nonsense mutation suppression. […] Based on luciferase protein production, these constructs qualitatively assess the level of translation-readthrough. […]
Cells that harbor the constructs of FIG. 2 show increased full-length protein production when treated with a compound of the present invention. […] Treatment of cells with a test compound produces full-length protein and not a readthrough protein (See e.g., FIG. 3). […]

SMILES: O=C(O)c1ccc(-n2cc(-c3ccccc3F)cn2)cc1 [Compound 85, 4-[4-(2-Fluoro-phenyl)-pyrazol-1-yl]-benzoic acid]
- western blot: production of luciferase protein; + and the codon context that is suppressed: +; UGAC
